Results as given in paper PMC12285200.
No constants are given. Whether binding was seen depends on the method and setting. For some assays here: In cells and extracts the contact can be indirect. Some binding calls cover weakened binding; strength is not graded here. Tags and fused reporters may be left off the sequences shown. One block for each molecule: values may come before it.

By UniProt entry, the sequences of proteins in these tests, tags left out.
UniProt O14746: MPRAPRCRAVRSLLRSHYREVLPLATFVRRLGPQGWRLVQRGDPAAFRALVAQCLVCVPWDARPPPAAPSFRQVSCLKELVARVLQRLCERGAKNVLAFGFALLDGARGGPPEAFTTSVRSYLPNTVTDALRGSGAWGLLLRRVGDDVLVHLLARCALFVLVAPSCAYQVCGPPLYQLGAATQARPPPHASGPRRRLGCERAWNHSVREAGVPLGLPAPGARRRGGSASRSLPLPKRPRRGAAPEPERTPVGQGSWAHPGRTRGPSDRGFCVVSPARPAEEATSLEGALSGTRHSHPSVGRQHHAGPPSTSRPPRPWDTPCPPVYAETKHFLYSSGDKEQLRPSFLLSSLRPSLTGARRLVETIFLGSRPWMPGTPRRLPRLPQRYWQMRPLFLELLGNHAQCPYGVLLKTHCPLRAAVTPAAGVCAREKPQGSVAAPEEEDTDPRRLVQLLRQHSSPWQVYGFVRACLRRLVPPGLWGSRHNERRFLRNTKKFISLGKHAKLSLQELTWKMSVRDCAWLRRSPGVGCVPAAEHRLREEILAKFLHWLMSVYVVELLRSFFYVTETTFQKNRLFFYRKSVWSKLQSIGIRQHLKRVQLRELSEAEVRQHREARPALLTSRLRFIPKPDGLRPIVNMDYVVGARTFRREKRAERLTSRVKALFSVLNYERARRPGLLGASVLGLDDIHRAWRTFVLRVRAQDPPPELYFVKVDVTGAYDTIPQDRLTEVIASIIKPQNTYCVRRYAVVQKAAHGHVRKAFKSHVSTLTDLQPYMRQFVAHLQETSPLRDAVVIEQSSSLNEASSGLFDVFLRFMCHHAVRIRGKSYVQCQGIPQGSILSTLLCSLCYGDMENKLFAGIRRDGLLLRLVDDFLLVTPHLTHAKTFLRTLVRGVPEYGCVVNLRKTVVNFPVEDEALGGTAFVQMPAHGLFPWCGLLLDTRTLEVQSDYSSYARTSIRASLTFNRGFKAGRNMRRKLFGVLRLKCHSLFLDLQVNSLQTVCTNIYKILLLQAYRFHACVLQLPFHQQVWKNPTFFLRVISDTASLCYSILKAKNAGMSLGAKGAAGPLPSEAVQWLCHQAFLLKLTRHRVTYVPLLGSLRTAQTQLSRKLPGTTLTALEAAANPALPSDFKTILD

Assays:
[1] = biological target: T1, HA-FLAG-tagged ZC3H15 (Zinc finger CCCH domain-containing protein 15) (human) (UniProt Q8WU90); assay: IP-TRAP (immunoprecipitation, then telomerase activity by q-TRAP); cell lysates incubated with anti-FLAG agarose beads at 4 °C for 4 h; eluates used for q-TRAP; for FLAG-TPP1 in HEK293T with GST-GFP or GST-ZC3H15 co-expressed, 48 h
T1 sequence: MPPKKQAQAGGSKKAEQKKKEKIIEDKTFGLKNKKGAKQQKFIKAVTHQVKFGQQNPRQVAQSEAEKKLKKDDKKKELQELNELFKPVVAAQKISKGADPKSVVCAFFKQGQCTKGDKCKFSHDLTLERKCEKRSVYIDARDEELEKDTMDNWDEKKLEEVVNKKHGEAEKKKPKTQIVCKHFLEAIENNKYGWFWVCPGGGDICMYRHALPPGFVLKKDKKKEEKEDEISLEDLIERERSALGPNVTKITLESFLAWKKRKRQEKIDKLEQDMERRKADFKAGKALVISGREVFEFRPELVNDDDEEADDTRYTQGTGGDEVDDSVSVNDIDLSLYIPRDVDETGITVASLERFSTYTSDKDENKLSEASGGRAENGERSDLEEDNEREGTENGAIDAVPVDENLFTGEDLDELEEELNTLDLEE

[2] = biological target: T2, GST-tagged ZC3H15 full length (human), Q8WU90; assay: pull-down; GST pull-down from HEK293T cells co-expressing a FLAG-tagged and a GST-tagged protein; NETN lysis buffer, beads 4 °C 2 to 4 h, three washes; western blot; settings: remark: other sources report otherwise
T2 chain: T1 sequence

binding [1]: binds
Molecule: telomerase (from UniProt O14746 1-1132) (complex)

binding [2]: binds
B1: HA-FLAG-tagged ZC3H15 (Zinc finger CCCH domain-containing protein 15), Q8WU90 1-426 (protein)
chain: T1 sequence
